Data from PubChem BioAssay AID720533 (National Center for Advancing Translational Sciences (NCATS), 2013).
Several values for one entry are separate records, joined by “and”; a condition that tells them apart may be missing. Equal entries are not always repeated. In all, about 18,000 compounds went through this assay and about 750 (4.2%) were called active. The shares of active, inactive and inconclusive entries below differ from those in the screen. Calls come from the whole dose curve; tested in HEK293 cells. Potencies beside an inconclusive call are fits to weak or partial responses and may not hold up. Starred links: 1 amine or outer side, 2 acyl side, 3 side chain; linkers in the order of their positions; H or OH if unused. Positions of bridges follow the written chain, without caps; N, C: chain ends. Non-standard residues stand in square brackets, D forms with d. Residues, ends and D or L forms follow the SMILES beside them. Chains are numbered I, II in the order given. Actinocin(9to1) = Cc1c2oc3c(C)ccc(C(=O)[*:1])c3nc-2c(C(=O)[*:2])c(N)c1=O; aThr = C[C@H](O)[C@H](N)C(=O)O; NMeV = CN[C@H](C(=O)O)C(C)C; Sar = CNCC(=O)O

Experiment: qHTS for Inhibitors of binding or entry into cells for Lassa Virus
Details: Lassa virus pseudotyped entry inhibition, cell-based qHTS; activity change, negative = inhibition: at 49.2 µM (top of the series) unless noted
% is set by controls: 0 for no effect and ±100 for the full control effect; potency is the fitted concentration of half-maximal effect.

Q: Which Potency does the source give for `N=C(N)c1ccc(OCCCCCOc2ccc(C(=N)N)cc2)cc1` here?
A: inconclusive: 10 µM [inhibitor, single point] and inconclusive: 10 µM [inhibitor, partial curve]

Q: Which “activity change, negative = inhibition” value does the source give for `CCCCCCCCCCOc1cc(OCCCCCCCCCC)cc(N(CC(=O)O)CC(=O)O)c1` here?
A: inactive: 3.12%

Q: With `Cc1c2oc3c(C)ccc(C(=O)N[C@@H]4C(=O)N[C@@H](C(C)C)C(=O)N5CCC[C@@H]5C(=O)N(C)CC(=O)N(C)[C@@H](C(C)C)C(=O)O[C@H]4C)c3nc-2c(C(=O)N[C@@H]2C(=O)N[C@@H](C(C)C)C(=O)N3CCC[C@@H]3C(=O)N(C)CC(=O)N(C)[C@@H](C(C)C)C(=O)O[C@H]2C)c(N)c1=O` (I: [aThr]V[dP][Sar][NMeV] / II: [aThr]V[dP][Sar][NMeV]; ester I:1-I:C, II:1-II:C; linker I:N-II:N via Actinocin(9to1)) as the compound, how does the Potency read?
A: inconclusive: 2 µM [inhibitor, partial curve, poor fit]

Q: With `COc1ccc(NC(=O)C[C@H]2C(=O)N(CCc3ccccc3)C[C@@H]2Cc2ccccc2)cc1` as the compound, how does the Potency read?
A: inconclusive: 0.0004 µM [inhibitor]

Q: Which Potency does the source give for `CN=C1N[C@H](c2ccccc2)N(c2ccccc2)S1` here?
A: inconclusive: 22.4 µM [inhibitor, partial curve]

Q: With `CC(=O)OC1C(=O)[C@]2(C)C(O)CC3OC[C@]3(OC(C)=O)C2[C@@H](OC(=O)c2ccccc2)[C@]2(O)CC(O)C(C)=C1C2(C)C` (some centres not stated) as the compound, how does the Potency read?
A: inconclusive: 1.58 µM [inhibitor, full curve, poor fit]

Q: Which Potency does the source give for `COc1cc(C=NNc2ncnc3c2cnn3C(C)C)ccc1O` here?
A: inconclusive: 12.5 µM [inhibitor, partial curve, poor fit]

Q: Which Potency does the source give for `COc1ccc(-c2oc3cc(O[C@@H]4OC(CO)C(O)C(O)C4O)c(OC)c(O)c3c(=O)c2OC)cc1O` (some centres not stated) here?
A: inconclusive: 10 µM [inhibitor, partial curve]

Q: With `COc1ccc(-c2nn3ncccc3c2-c2ccnc(Nc3ccc4c(c3)OCCO4)n2)cc1` as the compound, how does the Potency read?
A: inconclusive: 15.8 µM [inhibitor, partial curve, poor fit]

Q: For `CC1O[C@@H](O[C@@H]2C(O)C[C@H](O[C@@H]3C(O)C[C@@H](OC4CC[C@@]5(C)C6CC(O)[C@@]7(C)C(C8=CC(=O)OC8)CC[C@@]7(O)C6CC[C@@H]5C4)OC3C)OC2C)CC(O)[C@H]1O` (some centres not stated), which Potency is on record?
A: active: 1 µM

Q: Which Potency does the source give for `CNCCCC1c2ccccc2C=Cc2ccccc21` here?
A: inconclusive: 12.6 µM [inhibitor, partial curve]

Q: Which activity change, negative = inhibition does the source give for `CCCCc1nc2c(c3c1C[C@H](C)OC3)CN(C(=O)NCc1ccco1)CC2` here?
A: inconclusive: 11.4% [inhibitor] [at 8.59 µM]

Q: Which Potency does the source give for `COc1ccc2[nH]cc(CCN)c2c1` here?
A: inconclusive: 31.6 µM [inhibitor, single point]

Q: Which Potency does the source give for `C=C1C(=C/C=C2\CCC[C@]3(C)[C@@H]([C@H](C)/C=C/[C@H](C)C(C)C)CC[C@@H]23)C[C@@H](O)C[C@@H]1O` here?
A: inconclusive: 14.1 µM [inhibitor, single point]

Q: With `O=C(Nc1cccc(Cl)c1)OCCN1CCN(Cc2ccccc2)CCC1=O` as the compound, how does the Potency read?
A: inconclusive: 39.8 µM [inhibitor, single point]

Q: With `Cc1c(C)c2c(c(C)c1O)CCC(C)(COc1ccc(CC3SC(=O)NC3=O)cc1)O2` (configuration not stated) as the compound, how does the Potency read?
A: inconclusive: 35.5 µM [inhibitor, single point]

Q: With `Cc1ccccc1CN1[C@@H](CC(C)C)COc2c(Cl)cccc2S1(=O)=O` as the compound, how does the “activity change, negative = inhibition” value read?
A: inactive: 14.7%

Q: For `C=Cc1c(C)c2cc3[nH]c(cc4nc(cc5nc(cc1[nH]2)C(C)=C5CCC(=O)O)C(CCC(=O)O)=C4C)c(C)c3C=C`, which Potency is on record?
A: inactive

Q: Which activity change, negative = inhibition does the source give for `CCN1C(=O)NC(c2ccco2)C(C(=O)OC)=C1C` (configuration not stated) here?
A: inactive: -19.7% [at 8.59 µM]

Q: With `C=C[C@](C)(O)CCC1C(=C)CC(O)C2C(C)(C)CCCC12C` (some centres not stated) as the compound, how does the Potency read?
A: inconclusive: 12.6 µM [inhibitor, single point]

Q: For `COc1cc(O)c2c(c1)oc(=O)c1c3cc(O)c(O)cc3oc21`, which Potency is on record?
A: inconclusive: 35.5 µM [inhibitor, single point]

Q: For `CC[C@]1(O)C(=O)OCc2c1cc1n(c2=O)Cc2cc3ccccc3nc2-1`, which Potency is on record?
A: inconclusive: 7.08 µM [inhibitor, full curve]

Q: With `CN(C)CCCN1c2ccccc2Sc2ccccc21` as the compound, how does the Potency read?
A: inconclusive: 14.1 µM [inhibitor, single point] and inconclusive: 35.5 µM [inhibitor, single point]

Q: Which Potency does the source give for `Cc1ccc(-c2cc(=O)c3cc(C)ccc3[nH]2)cc1` here?
A: inconclusive: 15.8 µM [inhibitor, partial curve, poor fit]

Q: For `COC(=O)[C@@H]1[C@@H](c2cccc(C(F)(F)F)c2)NC(=O)N(Cc2ccccc2)[C@@H]1C`, which activity change, negative = inhibition is on record?
A: inactive: -22.3% [at 8.59 µM]

Q: For `Cn1ccc2c(N(c3ccccc3)C3CCCCC3)cc3c(c21)C1CCC3O1` (configuration not stated), which Potency is on record?
A: inconclusive: 11.2 µM [inhibitor, single point]

Q: With `COc1ccc2c(c1OC)C(Cc1ccccc1)N1CCc3cc4c(cc3C1C2)OCO4` (configuration not stated) as the compound, how does the Potency read?
A: inconclusive: 25.1 µM [inhibitor, partial curve]

Q: Which Potency does the source give for `O=c1[nH]c(=O)n(C2CC(O)C(CO)O2)cc1C(F)(F)F` (configuration not stated) here?
A: inconclusive: 1.41 µM [inhibitor, full curve]

Q: Which Potency does the source give for `COc1ccc(-c2nn3ncccc3c2-c2ccnc(Nc3cccc(C(F)(F)F)c3)n2)cc1` here?
A: inconclusive: 0.01 µM [inhibitor, full curve, poor fit]

Q: With `CC(C)c1nc(C(=O)N2CCOc3ccc(CN4CCN(c5ccccn5)CC4)cc3C2)cs1` as the compound, how does the “activity change, negative = inhibition” value read?
A: inactive: -24.9%

Q: With `COc1ccc(C(=O)NCC2Cc3cc(F)cc(-c4cncnc4)c3O2)cc1` (configuration not stated) as the compound, how does the “activity change, negative = inhibition” value read?
A: inactive: 4.35%

Q: For `COc1cccc([C@@H]2Oc3ccc(Br)cc3[C@H](O)[C@H]2O)c1`, which “activity change, negative = inhibition” value is on record?
A: inactive: -3.88%

Q: With `CCOC(=O)c1c(N)sc2c1CCN(Cc1ccccc1)C2` as the compound, how does the Potency read?
A: inconclusive: 25.1 µM [inhibitor, single point]

Q: Which Potency does the source give for `Nc1ccn(C2CO[C@H](CO)O2)c(=O)n1` (some centres not stated) here?
A: inconclusive: 63.1 µM [inhibitor, partial curve, poor fit]

Q: With `C=C1c2cccc(OC)c2O[C@H](C(=O)OCC)[C@@H]1CC(CC)CCCC` (some centres not stated) as the compound, how does the Potency read?
A: inconclusive: 39.8 µM [inhibitor, single point]

Q: For `C=C1C(=O)O[C@@H]2C[C@@H](C)[C@@H]3C=CC(=O)[C@@]3(C)[C@@H](O)[C@H]12`, which Potency is on record?
A: inconclusive: 11.2 µM [inhibitor, partial curve, poor fit]

Q: For `CC(=O)Oc1ccc(/C=C/c2cc(OC(C)=O)cc(OC(C)=O)c2)cc1`, which Potency is on record?
A: inconclusive: 11.2 µM [inhibitor, partial curve]

Q: With `CC(C)c1ccc2oc3nc(N)c(C(=O)O)cc3c(=O)c2c1` as the compound, how does the Potency read?
A: inconclusive: 12.6 µM [inhibitor, full curve]

Q: With `O=C(NCCN1Cc2ccccc2OC(c2ccsc2)C1)c1ccc2[nH]ccc2c1` (configuration not stated) as the compound, how does the Potency read?
A: inconclusive: 11.2 µM [inhibitor, partial curve]

Q: With `CCO[C@@H]1O[C@H](C(COCc2ccccc2)OCc2ccccc2)[C@H](OCc2ccccc2)[C@H]1O` (some centres not stated) as the compound, how does the Potency read?
A: inconclusive: 6.31 µM [inhibitor, full curve]

Q: With `CC(C)(O)C(Cl)(Cl)Cl` as the compound, how does the Potency read?
A: inactive

Q: Which “activity change, negative = inhibition” value does the source give for `COC(=O)CCC(=O)OC1(C)C(=O)C=C2C=C(CCCNC(=O)OC(C)(C)C)OC=C2C1=O` (configuration not stated) here?
A: inactive: -7.48%

Q: With `COc1ccc(CNc2nc(NCc3ccc(OC)cc3)c3ncn(C4CCCCC4)c3n2)cc1` as the compound, how does the Potency read?
A: inconclusive: 0.708 µM [inhibitor, full curve]

Q: Which Potency does the source give for `CSc1nc(C(=O)NCc2nc(-c3cccc(NC(=O)c4ccccn4)c3)oc2C)cs1` here?
A: inconclusive: 35.5 µM [inhibitor, single point]

Q: For `CCOC(=O)c1c(C(=O)OCC)c2c3ccccc3cc(C)n2c1C(=O)OC`, which activity change, negative = inhibition is on record?
A: inactive: 3.91% [at 8.59 µM]

Q: For `Oc1cccc2cccnc12`, which Potency is on record?
A: inconclusive: 44.7 µM [inhibitor, partial curve]

Q: With `CC(C)OC(=O)[C@H](C)NC(=O)N1CCc2nc(COc3ccccc3)c3c(c2C1)CO[C@@H](C)C3` as the compound, how does the activity change, negative = inhibition read?
A: inactive: -31% [at 8.59 µM]

Q: For `Cc1cc2oc(=O)cc(-c3ccccc3)c2c(C)c1-c1cccc(N)c1`, which Potency is on record?
A: inconclusive: 44.7 µM [inhibitor, partial curve, poor fit]

Q: With `COc1cccc(-c2cc(=O)c3cc(NC(=O)c4ccc(N(C)C)cc4)ccc3[nH]2)c1` as the compound, how does the Potency read?
A: inconclusive: 3.98 µM [inhibitor, partial curve]

Q: Which Potency does the source give for `COCOCCn1cc(CN2CCS(=O)(=O)N(Cc3ccc(-c4ccc(F)cc4)cc3)C(CC(C)C)C2=O)nn1` (configuration not stated) here?
A: inconclusive: 35.3 µM [inhibitor, single point]

Q: For `Cc1cc2c(c(-c3cnccn3)c1)OC(CNC(=O)c1ccccc1C(F)(F)F)C2` (configuration not stated), which “activity change, negative = inhibition” value is on record?
A: inactive: -5.89%

Q: With `CCN(CC)c1ccc(C(=C2C=CC(=[N+](CC)CC)C=C2)c2ccccc2)cc1` as the compound, how does the Potency read?
A: active: 0.316 µM

Q: With `COc1cc(CN2CCC3(CC2)c2ccccc2[C@@H](NC(=O)c2ccccc2OC)[C@@H]3O)ccc1F` as the compound, how does the Potency read?
A: inconclusive: 35.5 µM [inhibitor, single point]

Q: For `O=C1c2ccccc2C(=O)C1c1ccc(Cl)cc1`, which Potency is on record?
A: inconclusive: 25.1 µM [inhibitor, partial curve, poor fit]

Q: With `CC[C@H]1C(c2ccccc2)=NN(c2ccccc2)[C@@H]1CO` as the compound, how does the “activity change, negative = inhibition” value read?
A: inactive: -9.84%

Q: Which Potency does the source give for `CN(C)CC(O)Cn1c2ccc(Br)cc2c2cc(Br)ccc21` (configuration not stated) here?
A: active: 22.4 µM

Q: With `F/C(COc1ccc2c(c1)[nH]c1ccccc12)=C1/CN2CCC1CC2` as the compound, how does the Potency read?
A: inconclusive: 35.5 µM [inhibitor, single point]
